Measured data: PubChem BioAssay AID1259267 (Sanger Institute, 2017)
Aim: 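Kinase and colorectal-mutated gene knock-downs lethal to GP5D cells alone or with drugs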 (primary screen). System: human GP5D colorectal cancer cells. Reagent: siRNA pool against human genes. Conditions: anchor drugs at low dose: BYL719 1 µM, cetuximab 5 µg/ml, trametinib 10 nM, or DMSO vehicle. Detection: 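Mean replicate viability versus non-targeting pool, given as knock-down-alone robust z-score, DMSO fraction, and synergy with low-dose BYL719, cetuximab or trametinib (1 µM, 5 µg/ml, 10 nM)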. Scale: robust z-score, knock-down alone and viability with DMSO: higher = more viable cells; synergy score with trametinib and synergy score with BYL719 and synergy score with cetuximab: higher = stronger synthetic lethal synergy with drug. Rule for the call: 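a robust z-score below -3 for the knock-down by itself makes a gene active, i.e. essential alone; synergy scores are ignored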. Calls: active = essential alone; inactive = not essential.
This is a random part of 794 deposited reagents. Over the whole deposit, 9 (1.1%) are marked active. 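Viability capped at 1; calls reflect loss of viability from knock-down alone, not synergy with drugs.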 A number with no mark means an inactive call. Not stated in the record: the amount of reagent, the time to read-out.

robust z-score, knock-down alone | viability with DMSO (fraction of control) | synergy score with trametinib | synergy score with BYL719 | synergy score with cetuximab | Target gene
-0.658 | 0.687 | 0.0747 | -0.0427 | -0.0237 | RBM10 (GeneID 8241)
0.35 | 0.901 | 0.0485 | -0.18 | -0.17 | MKNK2 (GeneID 2872)
0.817 | 1 | 0.267 | -0.191 | -0.0518 | MAP3K1 (GeneID 4214)
0.817 | 1 | -0.0393 | -0.322 | 0.165 | CDKL5 (GeneID 6792)
0.817 | 1 | 0.045 | 0.0195 | -0.142 | CDK13 (GeneID 8621)
0.817 | 1 | -0.133 | -0.254 | -0.142 | NTRK2 (GeneID 4915)
-0.822 | 0.653 | -0.153 | -0.279 | -0.388 | PIP5K1A (GeneID 8394)
0.817 | 1 | 0.147 | -0.127 | -0.142 | MED24 (GeneID 9862)
-0.91 | 0.634 | -0.357 | -0.387 | -0.359 | IGF1R (GeneID 3480)
-0.905 | 0.635 | -0.192 | -0.327 | -0.213 | CAMK4 (GeneID 814)
-0.596 | 0.7 | -0.292 | -0.251 | -0.399 | BRD2 (GeneID 6046)
-1.06 | 0.602 | 0.122 | -0.136 | 0.109 | PXK (GeneID 54899)
0.817 | 1 | 0.116 | -0.0634 | -0.0948 | PRKAA2 (GeneID 5563)
-0.844 | 0.648 | 0.24 | -0.042 | 0.113 | ALPK1 (GeneID 80216)
0.15 | 0.859 | -0.203 | -0.371 | -0.263 | HK3 (GeneID 3101)
-0.648 | 0.689 | 0.0992 | 0.0693 | 0.0431 | APC (GeneID 324)
0.684 | 0.972 | -0.162 | -0.052 | -0.153 | PRKCE (GeneID 5581)
-0.529 | 0.715 | -0.165 | -0.318 | -0.207 | SIK2 (GeneID 23235)
-0.858 | 0.645 | -0.00171 | -0.105 | 0.00443 | AKT1 (GeneID 207)
-0.665 | 0.686 | 0.244 | -0.0763 | -0.0394 | HCK (GeneID 3055)

Next part; the last 4 above are carried over.
robust z-score, knock-down alone | viability with DMSO (fraction of control) | synergy score with trametinib | synergy score with BYL719 | synergy score with cetuximab | Target gene
0.684 | 0.972 | -0.162 | -0.052 | -0.153 | PRKCE (GeneID 5581)
-0.529 | 0.715 | -0.165 | -0.318 | -0.207 | SIK2 (GeneID 23235)
-0.858 | 0.645 | -0.00171 | -0.105 | 0.00443 | AKT1 (GeneID 207)
-0.665 | 0.686 | 0.244 | -0.0763 | -0.0394 | HCK (GeneID 3055)
0.0934 | 0.847 | 0.224 | 0.0483 | 0.129 | ULK4 (GeneID 54986)
-3.27 (active) | 0.134 | -0.046 | -0.115 | -0.0296 | COASY (GeneID 80347)
-0.592 | 0.701 | 0.00577 | -0.19 | 0.0601 | PAK1 (GeneID 5058)
0.144 | 0.857 | 0.229 | 0.0674 | 0.0571 | PRKCB (GeneID 5579)
0.579 | 0.949 | 0.164 | -0.394 | -0.00189 | DLG4 (GeneID 1742)
-0.956 | 0.624 | -0.135 | -0.265 | -0.122 | CKB (GeneID 1152)
0.579 | 0.95 | 0.142 | 0.0269 | -0.0269 | PRKACB (GeneID 5567)
0.817 | 1 | 0.0479 | -0.0334 | -0.0767 | PFKFB2 (GeneID 5208)
0.301 | 0.891 | 0.296 | -0.0941 | -0.0288 | IRAK2 (GeneID 3656)
0.265 | 0.883 | -0.145 | -0.161 | 0.0385 | PRPS2 (GeneID 5634)
0.817 | 1 | 0.236 | -0.115 | -0.142 | RPS6KC1 (GeneID 26750)
0.817 | 1 | 0.107 | -0.0479 | -0.142 | ITPKC (GeneID 80271)
0.817 | 1 | 0.238 | 0.0712 | 0.0782 | DLG2 (GeneID 1740)
0.231 | 0.876 | 0.107 | -0.0209 | -0.0184 | MAP3K5 (GeneID 4217)
